Experimental data: PubChem BioAssay AID2551 (National Center for Advancing Translational Sciences (NCATS), 2010)
The campaign covered roughly 310,000 compounds. About 17,000 (5.5%) were called active. This list was built around the results that the source calls inconclusive (neither active nor inactive); the mix of calls is not that of the screen. The call rests on the fitted dose curve; in most records, active means well fitted inhibition curve with a large enough effect; inconclusive means small, poorly fitted or top-dose-only effect, or effect the other way; inactive means no such curve, though single readings can be large or run the other way. Where the call is inconclusive, the potency comes from a doubtful curve fit.

The chains behind the UniProt entries cited, without tags or fusion partners. Where a name states a change or a piece, a line headed by the entry shows the natural chain unless it says otherwise.
UniProt P51450: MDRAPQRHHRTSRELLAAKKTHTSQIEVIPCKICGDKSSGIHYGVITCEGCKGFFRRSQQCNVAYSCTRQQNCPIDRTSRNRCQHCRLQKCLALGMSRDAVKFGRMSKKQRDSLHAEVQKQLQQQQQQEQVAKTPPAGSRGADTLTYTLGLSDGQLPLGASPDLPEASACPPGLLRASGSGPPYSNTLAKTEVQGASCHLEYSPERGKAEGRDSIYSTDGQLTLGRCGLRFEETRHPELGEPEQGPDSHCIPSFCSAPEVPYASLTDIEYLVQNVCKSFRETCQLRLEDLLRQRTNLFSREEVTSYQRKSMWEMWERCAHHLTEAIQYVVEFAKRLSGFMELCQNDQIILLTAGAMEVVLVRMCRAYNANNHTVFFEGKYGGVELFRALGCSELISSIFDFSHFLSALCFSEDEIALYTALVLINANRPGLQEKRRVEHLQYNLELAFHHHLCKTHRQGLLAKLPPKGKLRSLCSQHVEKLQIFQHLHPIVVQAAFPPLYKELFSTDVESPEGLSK

Target: Nuclear receptor ROR-gamma (Mus musculus) (UniProt P51450)
Experiment: qHTS for inhibitors of ROR gamma transcriptional activity; further: nearly all actives have a fitted effect of over 60% in size
Conditions: Drosophila S2 Gal4-RORgamma UAS-luciferase reporter, 20 h; series mostly up to 53.6 µM
In short: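 Schneider cells (Drosophila), stable Gal4 DBD–ROR gamma + UAS-luc; 1 hr cmpd preincubation; Cu2+ induction 700 uM final; 20 hr ambient; luminescence.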
Potency means the concentration at half of the fitted maximal effect.

| Structure (SMILES) | Potency |
| --- | --- |
| CC(CN(C)Cc1ccccc1)OC(=O)c1ccc(F)cc1 (configuration not stated) | inactive |
| Cc1sc2ncnc(SCC(=O)NC(=O)c3cccn3C)c2c1C | active: 4.47 µM |
| COc1ccccc1NCC(O)Cn1c2ccccc2c2ccccc21 (configuration not stated) | inactive |
| CCOC(=O)C(C)N1C(=O)S/C(=C/c2cc(C)n(-c3ccncc3)c2C)C1=O (configuration not stated) | inconclusive: 3.55 µM [activator, single point] |
| COc1ccc(C2C(C(=O)N3CCOCC3)CCC(=O)N2c2cc(OC)c(OC)c(OC)c2)cc1 (configuration not stated) | inconclusive: 0.158 µM [activator, single point] |
| O=C(/C=C/c1ccc(Br)cc1)NC(=S)NNC(=O)c1ccco1 | inconclusive: 0.1 µM [inhibitor, full curve] |
| O=C(COC(=O)c1c[nH]c(=O)[nH]c1=O)Nc1ccccc1Br | inactive |
| CN(C)S(=O)(=O)N(CC(=O)Nc1ccccc1C(F)(F)F)c1ccccc1 | inactive |
| Nc1ccc2nc(-c3ccc(Cl)cc3)[nH]c2c1 | inconclusive: 10 µM [inhibitor, partial curve, poor fit] |
| CNc1oc(-c2ccc(OCc3ccccc3)cc2)nc1C#N | inactive |
| Fc1ccc(CNC(=S)Nc2ccccc2F)cc1 | inconclusive: 22.4 µM [inhibitor, single point] |
| CCOC(=O)Cn1nc(-c2ccc(Cl)cc2)cc1N | inconclusive: 31.6 µM [activator, single point] |
| COc1ccccc1Nc1nc(-c2sc(NC(=O)c3ccc([N+](=O)[O-])cc3)nc2C)cs1 | active: 3.98 µM |
| CCc1ccc(S(=O)(=O)Nc2cc3c(cc2C)n(C)c(=O)n3C)cc1 | inconclusive: 3.98 µM [activator, single point] |
| CCOc1cc(C(=O)N/N=C\c2cn(CC)nc2C)cc(OCC)c1OCC | inconclusive: 17.8 µM [inhibitor, single point] |
| S=C(Nc1ccc(Br)cc1Cl)NC1CCN(Cc2ccccc2)CC1 | active: 10 µM |
| COc1ccccc1OCCn1c(C)c(C=O)c2ccccc21 | inconclusive: 15.8 µM [activator, partial curve] |
| O=C(Cc1cccc2ccccc12)Nc1ccccc1Br | inconclusive: 1.26 µM [activator, single point] |
| COc1cc(NC(=S)N2CCN(c3ccccn3)CC2)c(OC)cc1Cl | inactive |
| CC(C#N)Sc1ncnc2sc(-c3ccccc3)cc12 (configuration not stated) | inactive |
| CCCN(CC(=O)Nc1ccccc1Br)CC(=O)Nc1ccc(F)c(F)c1F | inactive |
| O=C(CSc1nnnn1-c1ccc(F)cc1F)Nc1ccccc1F | inconclusive: 11.2 µM [activator, partial curve] |
| O=C(Nc1ccon1)c1ccc(S(=O)(=O)N2CCCCCC2)cc1 | inconclusive: 2 µM [activator, full curve, poor fit] |
| CC(=O)c1sc(NC(=O)c2ccccc2F)nc1C | inconclusive: 15.8 µM [inhibitor, single point] |
| CCOc1ccc2c(c1)c(N=NC(N)=S)c(O)n2C | inconclusive: 0.631 µM [inhibitor, full curve] |
| Cc1n[nH]c(=S)n1/N=C/c1ccccc1OCc1ccc(Cl)cc1Cl | active: 2.82 µM |

| Structure (SMILES) | Potency |
| --- | --- |
| C=CCn1c(C(CC(C)C)CC(C)O)n[nH]c1=S (configuration not stated) | inconclusive: 10 µM [inhibitor, partial curve] |
| O=C(CCCCl)Nc1nc(-c2ccc3c(c2)OCCO3)cs1 | inactive |
| Cc1ccc[n+](CC(=O)/C=C2\N(C)c3ccccc3C2(C)C)c1 | inconclusive: 14.1 µM [activator, single point] |
| O=C(O)c1cc(Cl)ccc1-c1ccc(/C=C/c2cc(C(F)(F)F)[nH]c(=O)n2)o1 | inactive |
| Cc1ccc(C(=O)Nc2nnc(SCC(=O)N3CCCc4ccccc43)s2)cc1 | active: 0.501 µM |
| O=C(COc1ccc(Cl)cc1)NCc1ccccc1 | inactive |
| COc1ccc(NC(=O)c2cc3ccccc3[nH]2)cc1 | inactive |
| COc1ccccc1NC(=S)NNC(=O)c1ccc(O)cc1 | inconclusive: 22.4 µM [inhibitor, single point] |
| CC(C)c1ccc2[nH]c(O)c(N=NC(=O)c3ccc(CSc4nncn4C)cc3)c2c1 | inactive |
| COc1ccc(C(=O)CNc2ccccc2Br)cc1 | active: 1.78 µM |
| Cc1ccc(NC(=S)N/N=C/c2c(Cl)cccc2Cl)c(C)c1 | active: 0.794 µM |
| OCCNc1nc(Nc2ccc(Br)cc2)nc2ccccc12 | inactive |
| Cc1cccc(C(=O)NC(=S)NNC(=O)COc2ccc(Cl)cc2)c1 | active: 3.98 µM |
| CC(=O)C1=C(c2cccc([N+](=O)[O-])c2)N(C(C)=O)n2c(C)nnc2S1 | active: 5.01 µM |
| COc1ccc(S(=O)(=O)Nc2c(C(=O)O)[nH]c3ccc(OC)cc23)c(OC)c1 | inactive |
| CC(C)c1ccc(N=C2NN=C(c3cccs3)CS2)cc1 | active: 12.6 µM |
| COc1cc2c(cc1NS(=O)(=O)N1CCCCC1)oc1ccccc12 | inconclusive: 11.2 µM [inhibitor, partial curve] |
| O=C1CCCc2nn(-c3ccccc3)nc21 | inconclusive: 0.0398 µM [inhibitor, full curve, poor fit] |
| C=CCN(c1ccccc1)S(=O)(=O)c1cccc(C(=O)Nc2nc3ccccc3[nH]2)c1 | active: 2.82 µM |
| CC(=O)Oc1cccc2c1C(=O)c1c(OC(C)=O)cc(C(=O)O)cc1C2=O | inconclusive: 10 µM [inhibitor, partial curve] |
| CCCCN1CNC(=S)N(CCc2ccc(OCC)c(OCC)c2)C1 | active: 3.16 µM |
| CCOC(=O)c1[nH]c2c(c1C)C(=O)CC(c1ccco1)C2 (configuration not stated) | inconclusive: 11.2 µM [activator, partial curve] |
| N#CC(C(=O)NC1CCCCC1)=C1CCCCCC1 | inconclusive: 25.1 µM [activator, single point] |
| FC(F)(F)c1cccc(OCCN2CCN(Cc3ccccc3)CC2)c1 | inactive |
| O=C(CN1CCN(Cc2ccccc2Cl)CC1)N=Nc1c(O)[nH]c2ccccc12 | inconclusive: 14.1 µM [activator, single point] |
| CCC(=O)NC(=S)Nc1cccc(NC(=O)c2ccccc2)c1 | active: 5.01 µM |

5 compounds drawn at random from the list so far, as already listed:

| Structure (SMILES) | Potency |
| --- | --- |
| CC(C)c1ccc2[nH]c(O)c(N=NC(=O)c3ccc(CSc4nncn4C)cc3)c2c1 | inactive |
| CC(=O)C1=C(c2cccc([N+](=O)[O-])c2)N(C(C)=O)n2c(C)nnc2S1 | active: 5.01 µM |
| CC(C)c1ccc(N=C2NN=C(c3cccs3)CS2)cc1 | active: 12.6 µM |
| O=C(O)c1cc(Cl)ccc1-c1ccc(/C=C/c2cc(C(F)(F)F)[nH]c(=O)n2)o1 | inactive |
| Cc1ccc(NC(=S)N/N=C/c2c(Cl)cccc2Cl)c(C)c1 | active: 0.794 µM |

Additional compounds follow:

| Structure (SMILES) | Potency |
| --- | --- |
| CCOC(=O)CSC1=C(C#N)C(c2ccc(OC)cc2)C2=C(CC(C)(C)CC2=O)N1 (configuration not stated) | inconclusive: 14.1 µM [inhibitor, single point] |
| COc1ccc(C(=O)CN2C(=O)NC3(CCCc4ccccc43)C2=O)cc1OC (configuration not stated) | inconclusive: 35.5 µM [activator, single point] |
| COCCNC(=O)[C@H](C)[C@H]1C[C@]1(C)[C@H](NC(=O)OCc1ccccc1)c1ccccc1 | inconclusive: 35.5 µM [activator, single point] |
| COc1ccc(CC(=O)Nc2ccc(-c3noc(-c4cc(OC)c(OC)c(OC)c4)n3)cc2)cc1 | inconclusive: 0.316 µM [activator, partial curve, poor fit] |
| CN(C)c1ccc(NC(=O)CN2CCN(c3ccc(F)cc3)CC2)cc1 | inactive |
| Cn1c(NC(=S)Nc2ccccc2)nc2ccccc21 | active: 0.501 µM |
| COc1ccc(C(=O)NC(=S)NCCc2ccccc2)cc1 | active: 10 µM |
| N#Cc1cccc(-c2cncnc2NCc2ccccc2)c1 | inactive |
| Cc1ccc(CSc2nc3ccncc3n2CC(=O)Nc2cc(C)cc(C)c2)cc1 | inconclusive: 35.5 µM [inhibitor, single point] |
| Cc1cccc(Nc2nc(-c3ccc(O)c(O)c3)cs2)n1 | active: 4.47 µM |
| Cc1ccc(S(=O)(=O)CCC(=O)OCC(=O)c2c(N)n(CC(C)C)c(=O)n(C)c2=O)cc1 | inconclusive: 10 µM [activator, partial curve] |
| CCOc1ccc2oc(C(=O)NC3CCN(Cc4ccccc4)CC3)c(C)c2c1 | inactive |
| Cc1cc(C)c(S(=O)(=O)ON2C(=O)c3ccccc3C2=O)cc1C | active: 14.1 µM |
| C/C(=N\NC(=O)c1nn(C)c(C)c1Br)c1ccc(NC(=O)c2ccccc2F)cc1 | inconclusive: 2.24 µM [activator, full curve] |
| Cc1cccc(N2CCN(C(=O)c3ccc(N4CCCC4=O)cc3)CC2C)c1 (configuration not stated) | inactive |
| Cc1ccc(C)c(N(CC(=O)NC2CCCC2)C(=O)c2oc(C(C)(C)C)cc2C)c1 | inconclusive: 22.4 µM [inhibitor, single point] |
| COc1ccc(Nc2nc(C)c3ccccc3n2)cc1 | inconclusive: 6.31 µM [inhibitor, full curve, poor fit] |
| COc1ccccc1NS(=O)(=O)c1cc(NC(=O)CNC(=O)c2ccccc2)ccc1C | inconclusive: 14.1 µM [activator, single point] |
| O=C(CCCOc1ccccc1)N1CCN(c2ccccn2)CC1 | inconclusive: 15.8 µM [inhibitor, single point] |
| CCN(CC)S(=O)(=O)c1ccc(OC)c(NC(=O)CSc2cc(C)ccc2C)c1 | inconclusive: 17.8 µM [activator, single point] |
| Cc1c(N=Cc2nc3ccccc3[nH]2)c(=O)n(-c2ccccc2)n1C | inactive |
| CCCN(CCC)CCCNC(=S)Nc1ccc2nc(N3CCCC3)cc(C)c2c1 | inactive |
| N/C(=N\OC(=O)c1ccc2c(c1)OCO2)c1ccncc1 | active: 10 µM |
| CCOC(=O)c1ccccc1NC(=O)c1cn(-c2ccc(OC)cc2)c(=O)c2ccccc12 | inconclusive: 14.1 µM [activator, single point] |
| Cn1nccc1C(=O)Oc1cccc(/C=N/NC(=O)c2ccccc2O)c1 | inconclusive: 35.5 µM [inhibitor, single point] |

Of the compounds above, 2 contain a nitro group on carbon:

| Structure (SMILES) | Potency |
| --- | --- |
| COc1ccccc1Nc1nc(-c2sc(NC(=O)c3ccc([N+](=O)[O-])cc3)nc2C)cs1 | active: 3.98 µM |
| CC(=O)C1=C(c2cccc([N+](=O)[O-])c2)N(C(C)=O)n2c(C)nnc2S1 | active: 5.01 µM |
